Assay [1] concerns the target human M23-AQP4 expressed in DI TNC1 cells (human) (UniProt P55087). The assay can be described thus: SEC; native SEC (nSEC) on Sephacryl S-500 16/60, RT, 0.15% DDM, 150 mM NaCl; DDM extract (3% DDM) of plasma membrane-enriched vesicles injected; AQP4 in fractions by dot blot.
For assay [2] the target is unchanged. The assay can be described thus: native gel or EMSA; 2D BN/SDS-PAGE: 3-9% gradient blue native PAGE then 13% SDS-PAGE, AQP4 immunoblot; whole cells lysed in BN buffer (1% DDM, 12 mM NaCl, 500 mM 6-aminohexanoic acid, 20 mM Bis-Tris pH 7.0).
Assay [3] concerns the target human M23-AQP4 expressed in HEK-FS cells (human) (UniProt P55087). The assay is described as above.

Amino acid sequences for entries named in this document (tags omitted). A change or cut given only in a name is not applied to a line headed by its entry. Residues count along the entry.
UniProt P55087, residues 23-323: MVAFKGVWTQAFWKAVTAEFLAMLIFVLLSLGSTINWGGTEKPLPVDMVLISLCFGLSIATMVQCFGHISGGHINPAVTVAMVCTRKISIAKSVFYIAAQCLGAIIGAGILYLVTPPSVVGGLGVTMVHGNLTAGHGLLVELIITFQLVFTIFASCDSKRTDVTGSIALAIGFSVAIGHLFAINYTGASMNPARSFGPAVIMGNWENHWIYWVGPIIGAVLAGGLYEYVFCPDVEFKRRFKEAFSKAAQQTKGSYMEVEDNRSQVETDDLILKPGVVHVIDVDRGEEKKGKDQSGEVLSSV

The text below walks through data of PMC6406603.

No constants are given. Whether binding was seen depends on the method and setting. Some results given as binding are weak or reduced against the parent protein; the word gives no strength.

For the substance “human M23-AQP4 expressed in DI TNC1 cells (from UniProt P55087-2 1-301)”, the binding entry in assay [1] and in assay [2] was “binds” each time. “human M23-AQP4 expressed in HEK-FS cells (from UniProt P55087-2 1-301)”: the binding result in assay [3] is “binds”.
